Assay results: doi:10.1101/2025.09.11.675346
Results are given in words; binding and its absence hold for the method and conditions named. In cells and extracts the contact can be indirect. Some results given as binding are weak or reduced against the parent protein; the word gives no strength.

By UniProt entry, the sequences of proteins in these tests, tags left out.
UniProt Q9BXW9: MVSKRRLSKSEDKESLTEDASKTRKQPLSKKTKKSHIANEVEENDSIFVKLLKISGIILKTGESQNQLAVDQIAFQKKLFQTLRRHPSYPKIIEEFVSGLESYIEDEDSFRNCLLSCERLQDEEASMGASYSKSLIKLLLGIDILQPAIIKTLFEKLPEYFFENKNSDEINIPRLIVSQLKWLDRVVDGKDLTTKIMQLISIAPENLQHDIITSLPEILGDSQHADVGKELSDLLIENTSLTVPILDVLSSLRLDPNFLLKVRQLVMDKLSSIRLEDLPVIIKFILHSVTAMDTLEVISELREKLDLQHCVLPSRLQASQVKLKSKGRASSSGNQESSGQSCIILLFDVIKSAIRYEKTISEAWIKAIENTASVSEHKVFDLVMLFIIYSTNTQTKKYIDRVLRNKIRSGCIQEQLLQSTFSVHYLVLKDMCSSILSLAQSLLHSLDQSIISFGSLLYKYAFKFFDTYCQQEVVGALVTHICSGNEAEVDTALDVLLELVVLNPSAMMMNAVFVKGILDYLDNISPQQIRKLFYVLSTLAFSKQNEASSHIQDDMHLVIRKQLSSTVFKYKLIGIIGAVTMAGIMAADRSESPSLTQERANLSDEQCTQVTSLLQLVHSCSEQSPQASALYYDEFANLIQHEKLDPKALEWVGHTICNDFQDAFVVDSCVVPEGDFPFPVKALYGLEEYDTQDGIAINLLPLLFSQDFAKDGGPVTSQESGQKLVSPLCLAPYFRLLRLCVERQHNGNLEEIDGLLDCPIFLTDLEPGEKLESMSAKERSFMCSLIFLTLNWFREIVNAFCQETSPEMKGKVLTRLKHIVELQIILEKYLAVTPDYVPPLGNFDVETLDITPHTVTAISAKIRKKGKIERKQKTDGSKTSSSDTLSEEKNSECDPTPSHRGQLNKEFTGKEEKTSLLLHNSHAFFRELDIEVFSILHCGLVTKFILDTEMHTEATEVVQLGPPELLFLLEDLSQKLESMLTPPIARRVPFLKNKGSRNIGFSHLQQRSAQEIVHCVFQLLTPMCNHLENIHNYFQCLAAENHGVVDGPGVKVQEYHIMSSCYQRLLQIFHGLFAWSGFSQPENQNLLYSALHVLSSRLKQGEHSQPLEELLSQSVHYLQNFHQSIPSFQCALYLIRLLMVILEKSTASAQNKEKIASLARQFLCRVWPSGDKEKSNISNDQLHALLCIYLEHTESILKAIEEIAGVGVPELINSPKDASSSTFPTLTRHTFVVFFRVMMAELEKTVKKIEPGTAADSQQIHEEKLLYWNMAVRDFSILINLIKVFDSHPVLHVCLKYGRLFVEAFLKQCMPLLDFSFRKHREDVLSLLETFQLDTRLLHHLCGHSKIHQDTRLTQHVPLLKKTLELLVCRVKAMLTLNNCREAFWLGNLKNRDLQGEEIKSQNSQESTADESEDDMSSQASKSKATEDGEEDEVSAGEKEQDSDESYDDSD
UniProt P06748: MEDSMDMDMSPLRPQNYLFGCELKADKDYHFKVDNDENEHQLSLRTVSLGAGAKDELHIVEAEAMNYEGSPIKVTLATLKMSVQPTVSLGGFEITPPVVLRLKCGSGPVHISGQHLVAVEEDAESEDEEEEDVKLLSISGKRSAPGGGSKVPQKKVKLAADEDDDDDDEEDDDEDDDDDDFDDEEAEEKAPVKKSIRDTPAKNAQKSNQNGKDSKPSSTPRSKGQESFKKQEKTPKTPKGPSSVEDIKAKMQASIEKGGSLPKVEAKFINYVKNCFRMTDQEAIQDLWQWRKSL

B1: FANCG (protein, UniProt O15287 1-622)
chain: MSRQTTSVGSSCLDLWREKNDRLVRQAKVAQNSGLTLRRQQLAQDALEGLRGLLHSLQGLPAAVPVLPLELTVTCNFIILRASLAQGFTEDQAQDIQRSLERVLETQEQQGPRLEQGLRELWDSVLRASCLLPELLSALHRLVGLQAALWLSADRLGDLALLLETLNGSQSGASKDLLLLLKTWSPPAEELDAPLTLQDAQGLKDVLLTAFAYRQGLQELITGNPDKALSSLHEAASGLCPRPVLVQVYTALGSCHRKMGNPQRALLYLVAALKEGSAWGPPLLEASRLYQQLGDTTAELESLELLVEALNVPCSSKAPQFLIEVELLLPPPDLASPLHCGTQSQTKHILASRCLQTGRAGDAAEHYLDLLALLLDSSEPRFSPPPSPPGPCMPEVFLEAAVALIQAGRAQDALTLCEELLSRTSSLLPKMSRLWEDARKGTKELPYCPLWVSATHLLQGQAWVQLGAQKVAISEFSRCLELLFRATPEEKEQGAAFNCEQGCKSDAALQQLRAAALISRGLEWVASGQDTKALQDFLLSVQMCPGNRDTYFHLLQTLKRLDRRDEATALWWRLEAQTKGSHEDALWSLPLYLESYLSWIRPSDRDAFLEEFRTSLPKSCDL

Target: FANCD2 (human (endogenous in HSC93)) (UniProt Q9BXW9)
Test: co-IP

Molecule	binding
NPM1 (from UniProt P06748 1-294)	binds
B1	no binding
